Data published in PubChem BioAssay AID248 (DTP/NCI, 2004).
The list shows only some results of the screen, not a fair sample: it gathers tests that were run many times, whatever their T/C, doses with no T/C, and many T/C values between a quarter and a half above the control. Other doses and runs of a compound stand elsewhere. T/C is the treated group as % of the vehicle group. Some entries give survivors of the animals treated and no T/C: the source files T/C as zero there, which appears to mark a toxic dose or a test without result, not a measured value. Some survivor counts are full or nearly so, which does not show that the dose was tolerated: survival well below the control is almost never listed, so the zero probably covers shortened survival too. Counts of survivors are from the toxicity check (mostly the fifth day) where no day follows; animals may have died later. Schedule codes are those of the source, taken here to give the interval after Q, in days (D) or hours (H), and the number of doses after X. Some entries hold several experiments; the results are listed from low to high. Where survival is the endpoint, the PubChem record calls one and a half times the control and up active, and a quarter to a half above the control has no call in these data; cut-offs in other NCI protocols can differ. Brackets with × stand for listed records that agree. Some T/C values are followed by the survivors on the day toxicity was checked, most often the fifth; without a count, all were alive then.

Test system: L1210 leukemia ip in BDF1 mice, survival T/C
Assay: NCI In Vivo Anticancer Drug Screen. Data for tumor model L1210 Leukemia (intraperitoneal) in B6D2F1 (BDF1) mice
Settings: T/C endpoint: mean survival time, higher T/C = longer survival
[1] = dose: 100.0 mg/kg/injection, schedule: Q01DX009 (ip), vehicle: saline

Cc1ccc(C(SCC(N)C(=O)O)(c2ccccc2)c2ccc(C)cc2)cc1 (stereo not given)
T/C (dose: 2.4 mg/kg/injection, schedule: Q01DX009 (ip), vehicle: saline): 132 % of control | T/C (dose: 3.6 mg/kg/injection, schedule: Q01DX009 (ip), vehicle: saline): 149 % of control | T/C (dose: 6.5 mg/kg/injection, schedule: Q01DX009 (ip), vehicle: saline): 146 % of control | survivor count (dose: 50.0 mg/kg/injection, schedule: Q01DX009 (ip), vehicle: other): 5 of 6 | survivor count (dose: 100.0 mg/kg/injection, schedule: Q01DX009 (ip), vehicle: other): 4 of 6 | survivor count [1]: 5 of 6 and 9 of 10

CN(Cc1ccccc1)/N=N/c1nc[nH]c1C(N)=O
T/C (dose: 16.1 mg/kg/injection, schedule: Q01DX009 (ip), vehicle: saline with Tween-80, evaluated on day 5): 104 and 109 % of control | T/C (dose: 16.1 mg/kg/injection, schedule: Q01DX009 (ip), vehicle: saline with Tween-80, evaluated on day 60): 104 and 109 % of control | T/C (dose: 32.2 mg/kg/injection, schedule: Q01DX009 (ip), vehicle: saline with Tween-80, evaluated on day 5): 114 and 121 % of control | T/C (dose: 32.2 mg/kg/injection, schedule: Q01DX009 (ip), vehicle: saline with Tween-80, evaluated on day 60): 114 and 121 % of control | T/C (dose: 50.0 mg/kg/injection, schedule: Q01DX009 (ip), vehicle: acetone): 134 % of control | T/C (dose: 50.0 mg/kg/injection, schedule: Q01DX009 (ip), vehicle: water): 144 and 146 % of control | T/C (dose: 64.5 mg/kg/injection, schedule: Q01DX009 (ip), vehicle: saline with Tween-80, evaluated on day 5): 137 % of control (2×) | T/C (dose: 64.5 mg/kg/injection, schedule: Q01DX009 (ip), vehicle: saline with Tween-80, evaluated on day 60): 137 % of control (2×) | T/C (dose: 100.0 mg/kg/injection, schedule: Q01DX009 (ip), vehicle: saline with Tween-80): 139 % of control | T/C [1]: 130 % of control | T/C (dose: 100.0 mg/kg/injection, schedule: Q04DX003 (ip), vehicle: water): 125 % of control | T/C (dose: 129.0 mg/kg/injection, schedule: Q01DX009 (ip), vehicle: saline with Tween-80, evaluated on day 5): 149 and 159 % of control | T/C (dose: 129.0 mg/kg/injection, schedule: Q01DX009 (ip), vehicle: saline with Tween-80, evaluated on day 60): 150 and 159 % of control | survivor count (dose: 200.0 mg/kg/injection, schedule: Q01DX009 (ip), vehicle: saline): 6 of 6 | T/C (dose: 200.0 mg/kg/injection, schedule: Q04DX003 (ip), vehicle: water): 132 % of control | T/C (dose: 258.0 mg/kg/injection, schedule: Q01DX009 (ip), vehicle: saline with Tween-80, evaluated on day 5): 93 and 105 % of control | T/C (dose: 258.0 mg/kg/injection, schedule: Q01DX009 (ip), vehicle: saline with Tween-80, evaluated on day 60): 93 % of control [9 of 10 alive] | survivor count (dose: 258.0 mg/kg/injection, schedule: Q01DX009 (ip), vehicle: saline with Tween-80): 5 of 10 | T/C (dose: 400.0 mg/kg/injection, schedule: Q01DX001 (ip), vehicle: water): 128 % of control | survivor count (dose: 400.0 mg/kg/injection, schedule: Q01DX009 (ip), vehicle: saline with Tween-80): 3 of 6 | survivor count (dose: 400.0 mg/kg/injection, schedule: Q01DX009 (ip), vehicle: saline): 2 of 6 | survivor count (dose: 400.0 mg/kg/injection, schedule: Q01DX009 (ip), vehicle: water): 6 of 10 | T/C (dose: 400.0 mg/kg/injection, schedule: Q04DX003 (ip), vehicle: water): 146 % of control

CCCCCCN(CCCCCC)C1=C(Cl)C(=O)c2ccccc2C1=O
survivor count (dose: 100.0 mg/kg/injection, schedule: Q01DX001 (ip), vehicle: carboxymethylcellulose (CMC)): 0 of 4 | survivor count (dose: 200.0 mg/kg/injection, schedule: Q01DX001 (ip), vehicle: carboxymethylcellulose (CMC)): 0 of 4 | survivor count (dose: 400.0 mg/kg/injection, schedule: Q01DX001 (ip), vehicle: carboxymethylcellulose (CMC)): 0 of 4

O=C(O)/C(Br)=C\c1ccc(Br)o1
survivor count (dose: 400.0 mg/kg/injection, schedule: Q04DX002 (ip), vehicle: Klucel (hydroxypropylcellulose) (HPC)): 1 of 3

Cc1ccc(C)c2c1CC(C(=O)O)CC2C (stereo not given)
survivor count (dose: 400.0 mg/kg/injection, schedule: Q04DX003 (ip), vehicle: saline): 3 of 7

CSc1ccc(NC(=O)Nc2ccc(F)cc2)cc1
survivor count (dose: 400.0 mg/kg/injection, schedule: Q01DX009 (ip), vehicle: Klucel (hydroxypropylcellulose) (HPC)): 0 of 6

COCCN(N=O)C(=O)NC1CCCCC1
T/C (dose: 600.0 mg/kg/injection, schedule: Q01DX001 (ip), vehicle: carboxymethylcellulose (CMC)): 125 % of control | T/C (dose: 650.0 mg/kg/injection, schedule: Q01DX001 (ip), vehicle: carboxymethylcellulose (CMC)): 130 % of control | T/C (dose: 750.0 mg/kg/injection, schedule: Q01DX001 (ip), vehicle: carboxymethylcellulose (CMC)): 129 % of control [5 of 6 alive] | T/C (dose: 900.0 mg/kg/injection, schedule: Q01DX001 (ip), vehicle: carboxymethylcellulose (CMC)): 138 % of control

COc1ccc(OC)c(/C=N/NC(=O)C[N+](C)(C)C)c1
survivor count (dose: 200.0 mg/kg/injection, schedule: Q01DX009 (ip), vehicle: saline with Tween-80): 0 of 3
